What was measured:
[1] = spike-recovery study by chemosynthesized antigen-based dcELISA; conditions: n=3
[2] = spike-recovery study by mimotope-based dcELISA; conditions: n=3
[3] = system: mAb3C9; assay: competitive phage-ELISA of mimotopes against parathion-methyl; type: binding, mouse; conditions: mimotope as labelled

Compound | R (%) average recovery ([1]; apple, spiked 10 ng/g) [%] | R (%) average recovery ([1]; cabbage, spiked 10 ng/g) [%] | R (%) average recovery ([1]; cucumber, spiked 10 ng/g) [%] | R (%) average recovery ([2]; apple, spiked 10 ng/g) [%] | R (%) average recovery ([2]; cabbage, spiked 10 ng/g) [%] | R (%) average recovery ([2]; cucumber, spiked 10 ng/g) [%] | Amax [3] | further results
COP(=S)(OC)SCn1nnc2ccccc2c1=O [Azinphos-methyl] | 102.5 | 97.8 | 108.5 | 102.5 | 97.8 | 108.5 |  | R (%) average recovery ([1]; apple, spiked 5 ng/g): 95.6%; R (%) average recovery ([1]; cabbage, spiked 5 ng/g): 93.9%; R (%) average recovery ([1]; cucumber, spiked 5 ng/g): 101.7%; R (%) average recovery ([2]; apple, spiked 5 ng/g): 92.4%; R (%) average recovery ([2]; cabbage, spiked 5 ng/g): 93.9%; R (%) average recovery ([2]; cucumber, spiked 5 ng/g): 101.7%
C M A R Y M S A C (CMARYMSAC) [Hapten M39, phage-display peptide mimotope of mAb3C9] |  |  |  |  |  |  | 1.59 | 
C R G S M P F W C (CRGSMPFWC) [Hapten M32, phage-display peptide mimotope of mAb3C9] |  |  |  |  |  |  | 1.38 | 
COP(=S)(OC)Oc1ccc([N+](=O)[O-])cc1 [Parathion-methyl] | 90.3 | 112.8 | 106.2 | 93.3 | 121.5 | 106.2 |  | R (%) average recovery ([1]; apple, spiked 20 ng/g): 108.2%; R (%) average recovery ([1]; cabbage, spiked 20 ng/g): 101.7%; R (%) average recovery ([1]; cucumber, spiked 20 ng/g): 101.3%; R (%) average recovery ([2]; apple, spiked 20 ng/g): 108.2%; R (%) average recovery ([2]; cabbage, spiked 20 ng/g): 101.7%; R (%) average recovery ([2]; cucumber, spiked 20 ng/g): 101.3%
C L G T T P F F C (CLGTTPFFC) [Hapten M4, phage-display peptide mimotope of mAb3C9] |  |  |  |  |  |  | 1.52 | 
C T G T T P F Y C (CTGTTPFYC) [Hapten M20, phage-display peptide mimotope of mAb3C9, used for further study] |  |  |  |  |  |  | 1.64 | 
C L Y H P W N N C (CLYHPWNNC) [Hapten M3, phage-display peptide mimotope of mAb3C9] |  |  |  |  |  |  | 1.41 | 
COP(=S)(OC)Oc1ccc([N+](=O)[O-])c(C)c1 [Fenitrothion] | 97.7 | 101.2 | 101.8 | 97.7 | 101.2 | 101.8 |  | R (%) average recovery ([1]; apple, spiked 20 ng/g): 91.8%; R (%) average recovery ([1]; cabbage, spiked 20 ng/g): 98.2%; R (%) average recovery ([1]; cucumber, spiked 20 ng/g): 94.7%; R (%) average recovery ([2]; apple, spiked 20 ng/g): 94.8%; R (%) average recovery ([2]; cabbage, spiked 20 ng/g): 98.2%; R (%) average recovery ([2]; cucumber, spiked 20 ng/g): 94.7%

— paper PMC5118688 (Scientific Reports, 2016)
